The supplement of paper PMC10849652
The list shows a part of the results.

Amino acid sequences for entries named in this document (tags omitted). A change or cut given only in a name is not applied to a line headed by its entry.
UniProt P05091: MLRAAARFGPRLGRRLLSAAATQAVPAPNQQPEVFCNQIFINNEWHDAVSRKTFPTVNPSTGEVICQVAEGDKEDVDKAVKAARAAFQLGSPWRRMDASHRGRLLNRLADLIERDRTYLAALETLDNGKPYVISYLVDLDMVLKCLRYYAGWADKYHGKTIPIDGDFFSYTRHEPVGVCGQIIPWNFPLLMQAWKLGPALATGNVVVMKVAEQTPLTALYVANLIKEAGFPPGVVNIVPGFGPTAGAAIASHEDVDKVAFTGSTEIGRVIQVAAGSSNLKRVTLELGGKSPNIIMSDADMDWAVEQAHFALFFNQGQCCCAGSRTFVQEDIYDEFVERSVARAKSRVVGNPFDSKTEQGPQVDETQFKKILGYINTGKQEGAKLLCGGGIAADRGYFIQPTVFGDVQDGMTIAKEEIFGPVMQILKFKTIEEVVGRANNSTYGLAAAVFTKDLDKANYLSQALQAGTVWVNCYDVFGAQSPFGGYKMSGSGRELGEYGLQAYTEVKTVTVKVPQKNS
UniProt Q9ULX6: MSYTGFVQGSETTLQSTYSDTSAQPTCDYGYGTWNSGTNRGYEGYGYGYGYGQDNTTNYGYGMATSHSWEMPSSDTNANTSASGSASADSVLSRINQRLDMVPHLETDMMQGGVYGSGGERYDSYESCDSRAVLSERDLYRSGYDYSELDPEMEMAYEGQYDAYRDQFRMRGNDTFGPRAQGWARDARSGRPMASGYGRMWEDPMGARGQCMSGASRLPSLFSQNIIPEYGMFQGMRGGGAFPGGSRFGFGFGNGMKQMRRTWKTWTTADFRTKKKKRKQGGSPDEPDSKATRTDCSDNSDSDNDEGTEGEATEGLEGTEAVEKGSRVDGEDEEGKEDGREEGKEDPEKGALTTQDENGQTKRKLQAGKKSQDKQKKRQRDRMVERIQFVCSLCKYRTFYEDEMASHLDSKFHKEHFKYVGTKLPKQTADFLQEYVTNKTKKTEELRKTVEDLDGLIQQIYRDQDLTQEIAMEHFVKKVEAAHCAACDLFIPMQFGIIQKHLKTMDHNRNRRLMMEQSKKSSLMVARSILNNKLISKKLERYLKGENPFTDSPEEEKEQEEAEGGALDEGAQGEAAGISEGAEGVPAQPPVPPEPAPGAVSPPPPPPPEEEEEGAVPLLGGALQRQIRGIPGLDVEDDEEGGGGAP
UniProt Q9UIJ7: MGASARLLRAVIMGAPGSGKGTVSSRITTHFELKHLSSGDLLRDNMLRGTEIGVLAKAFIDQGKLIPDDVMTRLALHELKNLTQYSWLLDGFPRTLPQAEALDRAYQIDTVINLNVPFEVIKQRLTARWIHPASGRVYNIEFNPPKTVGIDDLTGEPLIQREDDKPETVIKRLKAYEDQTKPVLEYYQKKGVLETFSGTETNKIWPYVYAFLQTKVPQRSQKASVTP
UniProt Q3KRA9: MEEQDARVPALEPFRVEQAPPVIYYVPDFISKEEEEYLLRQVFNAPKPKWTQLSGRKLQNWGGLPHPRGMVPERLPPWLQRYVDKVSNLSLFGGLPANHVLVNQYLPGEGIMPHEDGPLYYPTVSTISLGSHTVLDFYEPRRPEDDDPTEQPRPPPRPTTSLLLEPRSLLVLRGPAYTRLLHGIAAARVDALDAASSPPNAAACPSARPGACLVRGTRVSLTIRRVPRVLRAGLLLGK
UniProt Q9H6U8: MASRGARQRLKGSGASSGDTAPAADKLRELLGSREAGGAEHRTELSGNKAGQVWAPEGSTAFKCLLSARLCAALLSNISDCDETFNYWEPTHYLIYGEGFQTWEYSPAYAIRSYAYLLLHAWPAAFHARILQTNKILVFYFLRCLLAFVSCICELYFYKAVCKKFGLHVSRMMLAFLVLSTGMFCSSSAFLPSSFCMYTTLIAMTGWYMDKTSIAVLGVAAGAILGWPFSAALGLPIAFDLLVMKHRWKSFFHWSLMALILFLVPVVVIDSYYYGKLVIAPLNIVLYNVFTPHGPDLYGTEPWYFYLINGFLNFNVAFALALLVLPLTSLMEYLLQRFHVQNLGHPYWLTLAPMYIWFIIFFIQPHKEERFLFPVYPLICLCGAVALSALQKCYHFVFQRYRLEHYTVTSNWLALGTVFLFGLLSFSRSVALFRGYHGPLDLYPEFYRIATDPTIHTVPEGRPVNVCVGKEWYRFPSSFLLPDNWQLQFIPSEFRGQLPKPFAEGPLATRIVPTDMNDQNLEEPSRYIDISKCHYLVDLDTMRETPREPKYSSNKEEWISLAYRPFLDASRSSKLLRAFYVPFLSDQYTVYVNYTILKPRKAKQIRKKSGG
UniProt O00170: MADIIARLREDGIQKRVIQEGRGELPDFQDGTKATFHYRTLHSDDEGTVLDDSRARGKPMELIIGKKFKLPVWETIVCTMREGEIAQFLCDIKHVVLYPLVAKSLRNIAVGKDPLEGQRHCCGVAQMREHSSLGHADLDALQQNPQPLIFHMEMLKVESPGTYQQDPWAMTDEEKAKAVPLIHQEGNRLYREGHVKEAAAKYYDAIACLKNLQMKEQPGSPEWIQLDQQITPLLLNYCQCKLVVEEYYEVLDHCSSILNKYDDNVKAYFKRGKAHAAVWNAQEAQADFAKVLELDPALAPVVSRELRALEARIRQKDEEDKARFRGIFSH
UniProt Q3SY69: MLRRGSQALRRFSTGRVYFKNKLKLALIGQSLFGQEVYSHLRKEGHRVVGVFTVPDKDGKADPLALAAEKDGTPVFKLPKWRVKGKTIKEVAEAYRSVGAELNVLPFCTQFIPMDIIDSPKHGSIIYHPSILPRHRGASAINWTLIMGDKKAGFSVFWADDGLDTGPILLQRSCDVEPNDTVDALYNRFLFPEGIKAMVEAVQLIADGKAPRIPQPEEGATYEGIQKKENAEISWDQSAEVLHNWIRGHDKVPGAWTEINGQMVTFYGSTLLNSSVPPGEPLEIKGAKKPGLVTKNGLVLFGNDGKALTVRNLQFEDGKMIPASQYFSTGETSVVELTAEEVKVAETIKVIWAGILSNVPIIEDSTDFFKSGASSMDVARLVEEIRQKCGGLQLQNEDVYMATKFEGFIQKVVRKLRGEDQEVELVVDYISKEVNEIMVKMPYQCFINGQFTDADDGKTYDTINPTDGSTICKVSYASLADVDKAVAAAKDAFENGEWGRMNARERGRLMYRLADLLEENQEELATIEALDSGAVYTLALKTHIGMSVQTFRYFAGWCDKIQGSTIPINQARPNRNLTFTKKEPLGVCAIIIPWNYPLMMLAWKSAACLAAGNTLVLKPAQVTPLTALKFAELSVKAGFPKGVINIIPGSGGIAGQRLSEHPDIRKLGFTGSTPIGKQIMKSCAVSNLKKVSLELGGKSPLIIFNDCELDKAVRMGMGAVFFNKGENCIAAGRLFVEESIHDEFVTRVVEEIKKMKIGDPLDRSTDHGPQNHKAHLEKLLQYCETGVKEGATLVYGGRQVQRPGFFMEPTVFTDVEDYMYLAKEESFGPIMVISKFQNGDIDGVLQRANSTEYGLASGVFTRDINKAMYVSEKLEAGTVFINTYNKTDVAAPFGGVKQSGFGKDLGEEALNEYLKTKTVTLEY
UniProt O00116: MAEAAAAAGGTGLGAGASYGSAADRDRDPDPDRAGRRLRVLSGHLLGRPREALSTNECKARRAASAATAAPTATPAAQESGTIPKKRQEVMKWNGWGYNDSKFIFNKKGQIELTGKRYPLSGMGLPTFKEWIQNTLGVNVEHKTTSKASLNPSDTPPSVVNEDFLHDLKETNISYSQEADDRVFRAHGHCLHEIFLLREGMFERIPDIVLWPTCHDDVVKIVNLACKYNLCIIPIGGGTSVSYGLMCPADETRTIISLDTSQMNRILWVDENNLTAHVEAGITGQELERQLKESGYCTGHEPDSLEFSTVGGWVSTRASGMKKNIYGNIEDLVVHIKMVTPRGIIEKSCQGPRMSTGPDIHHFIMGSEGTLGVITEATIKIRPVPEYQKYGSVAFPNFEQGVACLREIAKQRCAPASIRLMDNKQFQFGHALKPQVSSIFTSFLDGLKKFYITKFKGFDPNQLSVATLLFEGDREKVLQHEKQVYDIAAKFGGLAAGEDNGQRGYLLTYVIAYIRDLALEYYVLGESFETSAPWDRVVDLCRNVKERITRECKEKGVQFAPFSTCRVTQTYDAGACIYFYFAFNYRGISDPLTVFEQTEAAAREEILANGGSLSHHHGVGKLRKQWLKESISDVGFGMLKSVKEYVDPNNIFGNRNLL
UniProt Q9Y673: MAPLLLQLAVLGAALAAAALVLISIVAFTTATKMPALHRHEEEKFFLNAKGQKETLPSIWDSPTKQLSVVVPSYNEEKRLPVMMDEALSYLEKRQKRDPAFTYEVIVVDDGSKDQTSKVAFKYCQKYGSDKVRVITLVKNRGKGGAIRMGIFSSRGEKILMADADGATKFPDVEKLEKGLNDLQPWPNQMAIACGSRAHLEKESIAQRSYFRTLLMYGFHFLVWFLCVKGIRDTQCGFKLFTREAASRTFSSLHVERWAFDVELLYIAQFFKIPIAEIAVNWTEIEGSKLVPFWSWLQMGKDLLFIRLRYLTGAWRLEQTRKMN
UniProt P55263: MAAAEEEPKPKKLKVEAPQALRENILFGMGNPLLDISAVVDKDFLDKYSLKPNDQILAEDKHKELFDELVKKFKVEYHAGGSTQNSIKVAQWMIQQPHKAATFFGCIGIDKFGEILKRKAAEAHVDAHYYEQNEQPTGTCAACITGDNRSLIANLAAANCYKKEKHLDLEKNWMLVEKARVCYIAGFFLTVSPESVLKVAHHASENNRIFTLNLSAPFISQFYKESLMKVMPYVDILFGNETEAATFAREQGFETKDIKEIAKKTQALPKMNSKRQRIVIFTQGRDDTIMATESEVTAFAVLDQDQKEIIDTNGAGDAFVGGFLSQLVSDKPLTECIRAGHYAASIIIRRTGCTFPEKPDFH
UniProt O43823: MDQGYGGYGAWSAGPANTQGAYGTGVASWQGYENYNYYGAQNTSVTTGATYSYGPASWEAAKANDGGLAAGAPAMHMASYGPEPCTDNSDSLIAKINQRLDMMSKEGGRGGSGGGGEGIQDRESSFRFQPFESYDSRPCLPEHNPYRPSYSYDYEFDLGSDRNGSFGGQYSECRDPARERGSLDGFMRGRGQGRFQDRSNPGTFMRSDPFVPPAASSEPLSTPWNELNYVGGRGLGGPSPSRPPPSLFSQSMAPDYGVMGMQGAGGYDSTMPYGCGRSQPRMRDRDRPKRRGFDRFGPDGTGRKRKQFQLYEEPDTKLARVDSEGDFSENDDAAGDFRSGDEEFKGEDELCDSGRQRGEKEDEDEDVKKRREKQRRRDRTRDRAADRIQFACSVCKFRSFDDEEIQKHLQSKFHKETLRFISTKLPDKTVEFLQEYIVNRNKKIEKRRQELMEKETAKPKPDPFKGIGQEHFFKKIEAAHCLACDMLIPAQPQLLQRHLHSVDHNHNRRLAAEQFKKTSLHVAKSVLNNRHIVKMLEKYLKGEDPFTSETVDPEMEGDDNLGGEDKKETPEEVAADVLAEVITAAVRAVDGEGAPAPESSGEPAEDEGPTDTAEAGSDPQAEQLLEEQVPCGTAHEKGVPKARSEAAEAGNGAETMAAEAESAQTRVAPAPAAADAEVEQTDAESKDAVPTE
UniProt P23526: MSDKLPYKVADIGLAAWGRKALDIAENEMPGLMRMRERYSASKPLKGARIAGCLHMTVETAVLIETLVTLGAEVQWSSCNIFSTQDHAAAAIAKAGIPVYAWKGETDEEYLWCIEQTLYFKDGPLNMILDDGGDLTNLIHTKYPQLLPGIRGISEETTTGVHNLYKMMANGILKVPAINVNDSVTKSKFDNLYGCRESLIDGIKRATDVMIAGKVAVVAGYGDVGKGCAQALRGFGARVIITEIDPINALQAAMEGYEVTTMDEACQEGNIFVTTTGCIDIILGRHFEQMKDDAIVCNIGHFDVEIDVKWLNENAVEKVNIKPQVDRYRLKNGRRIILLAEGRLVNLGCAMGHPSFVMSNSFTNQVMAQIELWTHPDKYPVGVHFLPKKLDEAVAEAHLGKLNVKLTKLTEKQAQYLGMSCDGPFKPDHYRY
UniProt O95831, whole entry, looked up: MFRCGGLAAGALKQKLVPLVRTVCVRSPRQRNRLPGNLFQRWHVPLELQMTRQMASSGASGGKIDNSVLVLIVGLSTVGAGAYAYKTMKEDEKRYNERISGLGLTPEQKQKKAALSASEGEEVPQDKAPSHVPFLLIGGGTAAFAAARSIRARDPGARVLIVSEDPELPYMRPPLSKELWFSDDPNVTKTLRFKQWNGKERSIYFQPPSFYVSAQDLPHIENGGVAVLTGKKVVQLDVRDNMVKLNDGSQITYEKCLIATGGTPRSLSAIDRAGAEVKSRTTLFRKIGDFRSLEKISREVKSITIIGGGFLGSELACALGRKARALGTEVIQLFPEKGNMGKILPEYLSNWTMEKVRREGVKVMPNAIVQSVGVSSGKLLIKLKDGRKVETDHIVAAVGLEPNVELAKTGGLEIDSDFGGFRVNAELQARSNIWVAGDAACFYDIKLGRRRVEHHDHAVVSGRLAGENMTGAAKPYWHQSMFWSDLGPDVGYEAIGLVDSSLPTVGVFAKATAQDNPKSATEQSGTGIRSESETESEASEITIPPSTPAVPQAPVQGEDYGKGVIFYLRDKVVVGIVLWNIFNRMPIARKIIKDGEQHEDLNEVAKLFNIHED

Compound: Nc1ccccc1NC(=O)c1ccc(CNC(=O)OCc2cccnc2)cc1 [entinostat]
Assay: log2 fold change, soluble protein after heating vs DMSO (PISA); higher = thermal stabilisation; K562 cells, 10 uM, 30 min; active = over 0.2 and 3.5 SD of the protein, either way, in both replicates (recomputed)
In short: (§1)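 K562 cells at 2×10^6 cells/mL were treated with 10 μM compound for 30 min. Aliquots were heated for 3 min across 48°C-58°C, pooled, and extracted in PBS with 0.5% NP-40 at 4°C; soluble protein was the supernatant after 21,000xg for 90 min. Soluble protein was quantified by TMTpro 16plex LC-MS/MS with channel sums equalised, and reported as log2 fold change in thermal stability against DMSO controls, with values from duplicates.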

| Target | log2 fold change |
| --- | --- |
| ADSS2 (UniProt P30520) | inactive: -0.032 |
| ADPRHL2 (UniProt Q9NX46) | inactive: 0.027 |
| ALDH2 (UniProt P05091) | inactive: -0.007 |
| AKR7A2 (UniProt O43488) | inactive: 0.001 |
| ADD2 (UniProt P35612) | inactive: -0.038 |
| AKR1B1 (UniProt P15121) | inactive: -0.072 |
| AKAP8L (UniProt Q9ULX6) | inactive: 0.01 |
| ANAPC1 (UniProt Q9H1A4) | inactive: -0.006 |
| AK3 (UniProt Q9UIJ7) | inactive: -0.021 |
| ALDH1B1 (UniProt P30837) | inactive: -0.019 |
| AKT1S1 isoform 3 (UniProt Q96B36) | inactive: -0.051 |
| AFDN isoform 5 (UniProt P55196) | inactive: 0.008 |
| AGPAT1 (UniProt Q99943) | inactive: -0.033 |
| ALKBH6 isoform 2 (UniProt Q3KRA9) | inactive: -0.01 |
| ALDH6A1 (UniProt Q02252) | inactive: -0.052 |
| ALKBH2 (UniProt Q6NS38) | inactive: -0.166 |
| ALG9 isoform 3 (UniProt Q9H6U8) | inactive: 0.044 |

| Target | log2 fold change |
| --- | --- |
| AIP (UniProt O00170) | inactive: 0.084 |
| ALDH1L2 (UniProt Q3SY69) | inactive: 0 |
| AGPS (UniProt O00116) | inactive: 0.023 |
| AKIRIN2 (UniProt Q53H80) | inactive: 0.044 |
| AGL (UniProt P35573) | inactive: 0.04 |
| ADD3 (UniProt Q9UEY8) | inactive: -0.051 |
| ALG5 (UniProt Q9Y673) | inactive: 0.02 |
| ADK (UniProt P55263) | inactive: -0.087 |
| AKAP8 (UniProt O43823) | inactive: -0.024 |
| AHCY (UniProt P23526) | inactive: -0.006 |
| AIFM1 (UniProt O95831) | inactive: -0.014 |
| ALG6 (UniProt Q9Y672) | inactive: 0.019 |
| ALDOA isoform 2 (UniProt P04075) | inactive: 0.002 |
| AHCYL2 (UniProt Q96HN2) | inactive: -0.074 |
| ADSS1 (UniProt Q8N142) | inactive: 0 |
| AHCYL1 (UniProt O43865) | inactive: -0.109 |

Compound: O=C(CCCCCCC(=O)Nc1ccccc1)NO [vorinostat]
Assay: as above
In short: as §1

| Target | log2 fold change |
| --- | --- |
| ADSS2 (UniProt P30520) | inactive: -0.029 |
| ADPRHL2 (UniProt Q9NX46) | inactive: -0.039 |
| ALDH2 (UniProt P05091) | active: 0.216 |
| AKR7A2 (UniProt O43488) | inactive: 0.015 |
| ADD2 (UniProt P35612) | inactive: 0.023 |
| AKR1B1 (UniProt P15121) | inactive: 0.005 |
| AKAP8L (UniProt Q9ULX6) | inactive: 0.088 |
| ANAPC1 (UniProt Q9H1A4) | inactive: 0.003 |
| AK3 (UniProt Q9UIJ7) | inactive: -0.023 |
| ALDH1B1 (UniProt P30837) | active: 0.281 |
| AKT1S1 isoform 3 (UniProt Q96B36) | inactive: -0.03 |
| AFDN isoform 5 (UniProt P55196) | inactive: 0.019 |
| AGPAT1 (UniProt Q99943) | inactive: -0.03 |
| ALKBH6 isoform 2 (UniProt Q3KRA9) | inactive: 0.002 |
| ALDH6A1 (UniProt Q02252) | inactive: 0.021 |
| ALKBH2 (UniProt Q6NS38) | inactive: 0.184 |
| ALG9 isoform 3 (UniProt Q9H6U8) | inactive: 0.085 |

| Target | log2 fold change |
| --- | --- |
| AIP (UniProt O00170) | inactive: 0.076 |
| ALDH1L2 (UniProt Q3SY69) | inactive: 0.069 |
| AGPS (UniProt O00116) | inactive: 0.045 |
| AKIRIN2 (UniProt Q53H80) | inactive: 0.035 |
| AGL (UniProt P35573) | inactive: -0.038 |
| ADD3 (UniProt Q9UEY8) | inactive: -0.01 |
| ALG5 (UniProt Q9Y673) | inactive: 0.052 |
| ADK (UniProt P55263) | inactive: -0.044 |
| AKAP8 (UniProt O43823) | inactive: 0.01 |
| AHCY (UniProt P23526) | inactive: -0.015 |
| AIFM1 (UniProt O95831) | inactive: -0.022 |
| ALG6 (UniProt Q9Y672) | inactive: 0.017 |
| ALDOA isoform 2 (UniProt P04075) | inactive: -0.028 |
| AHCYL2 (UniProt Q96HN2) | inactive: -0.044 |
| ADSS1 (UniProt Q8N142) | inactive: -0.001 |
| AHCYL1 (UniProt O43865) | inactive: 0.116 |

Compound: O=C(CCCCCCNC(=O)c1cnc(N(c2ccccc2)c2ccccc2Cl)nc1)NO [citarinostat]
Assay: as above
In short: as §1

| Target | log2 fold change |
| --- | --- |
| ADSS2 (UniProt P30520) | inactive: 0.004 |
| ADPRHL2 (UniProt Q9NX46) | inactive: 0.076 |
| ALDH2 (UniProt P05091) | inactive: 0.043 |
| AKR7A2 (UniProt O43488) | inactive: 0.044 |
| ADD2 (UniProt P35612) | inactive: 0.024 |
| AKR1B1 (UniProt P15121) | inactive: 0.037 |
| AKAP8L (UniProt Q9ULX6) | inactive: 0.124 |
| ANAPC1 (UniProt Q9H1A4) | inactive: 0.009 |
| AK3 (UniProt Q9UIJ7) | inactive: 0.02 |
| ALDH1B1 (UniProt P30837) | inactive: 0.051 |
| AKT1S1 isoform 3 (UniProt Q96B36) | inactive: -0.027 |
| AFDN isoform 5 (UniProt P55196) | inactive: 0.079 |
| AGPAT1 (UniProt Q99943) | inactive: 0.088 |
| ALKBH6 isoform 2 (UniProt Q3KRA9) | inactive: -0.067 |
| ALDH6A1 (UniProt Q02252) | inactive: 0.062 |
| ALKBH2 (UniProt Q6NS38) | inactive: -0.17 |
| ALG9 isoform 3 (UniProt Q9H6U8) | inactive: -0.044 |

| Target | log2 fold change |
| --- | --- |
| AIP (UniProt O00170) | inactive: 0.105 |
| ALDH1L2 (UniProt Q3SY69) | inactive: -0.136 |
| AGPS (UniProt O00116) | inactive: 0.058 |
| AKIRIN2 (UniProt Q53H80) | inactive: 0.015 |
| AGL (UniProt P35573) | inactive: -0.05 |
| ADD3 (UniProt Q9UEY8) | inactive: -0.015 |
| ALG5 (UniProt Q9Y673) | inactive: 0.051 |
| ADK (UniProt P55263) | inactive: -0.02 |
| AKAP8 (UniProt O43823) | inactive: 0.002 |
| AHCY (UniProt P23526) | inactive: 0.02 |
| AIFM1 (UniProt O95831) | inactive: -0.018 |
| ALG6 (UniProt Q9Y672) | inactive: 0.005 |
| ALDOA isoform 2 (UniProt P04075) | inactive: 0.022 |
| AHCYL2 (UniProt Q96HN2) | inactive: -0.078 |
| ADSS1 (UniProt Q8N142) | inactive: 0.032 |
| AHCYL1 (UniProt O43865) | inactive: -0.017 |
